Reference: publication PMC7862700
The entries are a selection whose mix differs from that of the whole data set. At the low end of the ranking the order means little.

Molecular target: T1, ELF3 (UniProt P78545)
T1 sequence: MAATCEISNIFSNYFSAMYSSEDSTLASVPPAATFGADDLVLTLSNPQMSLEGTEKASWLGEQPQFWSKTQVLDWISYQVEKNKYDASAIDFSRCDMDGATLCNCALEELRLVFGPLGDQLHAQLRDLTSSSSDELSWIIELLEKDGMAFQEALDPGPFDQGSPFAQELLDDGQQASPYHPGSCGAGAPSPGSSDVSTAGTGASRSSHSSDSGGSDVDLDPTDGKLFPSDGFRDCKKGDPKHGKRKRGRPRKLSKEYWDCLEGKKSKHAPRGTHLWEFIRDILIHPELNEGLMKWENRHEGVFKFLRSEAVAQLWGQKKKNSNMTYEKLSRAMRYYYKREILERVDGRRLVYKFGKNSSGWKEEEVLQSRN
Experiment: DAPPL (digital affinity profiling via proximity ligation, sequencing)
Details: 10 mM Tris-HCl pH 7.5, 50 mM NaCl, 1 mM DTT, 4% glycerol, room temperature, 30 min; GST-TFs on glutathione beads, 16-mer random dsDNA library, 0.1% …; high values mean tight binding; double strand, one strand shown; scale: fold enrichment (6-mer frequency, TF over GST control)

Sequence	binding signal
TTCCCA	1.27
TTCCGG	5.14
CGTATA	1.24
TGATCG	0.944
GATATT	1.07
TCAGTT	0.99
CTTCCA	1.49
TGGACA	1.15
TTTTAG	0.975
GTTCGC	0.97
TAGATA	1.08
CACACC	1.02
ACCACG	0.986
ACGAAT	1.12
ATGACC	1.63
AATAAA	1.31
GCACTG	0.926
CCGGCC	1.14
GCTAAA	1.07
TCTATT	1.35

Sequence	binding signal
TCGACG	1.06
ACGCAC	0.995
ACGAAA	1.19
TCCATG	1.25
CGATCA	1.07
GATGTT	1.22
TTCGCG	0.97
TTCTAA	1.04
CAGATG	0.994
CTTTCG	1.4
CCTTTA	1.51
CTAGAA	1.03
CCTTCG	1.28
CCCGGT	1.06
ATTAGT	0.982
ACTGGT	1.06
GGATGT	1.61
TGCCCA	0.987
AAGAAC	1.16
AAGGCA	0.926

Pulled one by one from the list above, 3 records:
Sequence	binding signal
CCTTCG	1.28
AAGGCA	0.926
ACGAAA	1.19
